# PubChem BioAssay AID1259259 – Sanger Institute | 2017
# Screen: 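Kinase silencing that lowers colorectal cancer cell viability alone or with drugs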 (primary screen)
# Cell system: SW1463 human colorectal cancer cells
# Reagents: siRNA pool against human genes
# Challenge: DMSO vehicle, or one anchor drug: BYL719 at 1 µM, cetuximab at 5 µg/ml, or trametinib at 10 nM
# Measurement: 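Viability relative to control pool 2 (non-targeting) averaged over replicates, robust z-score for knock-down with no drug, and for each anchor drug the mean synergy score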
# Reading the numbers: robust z-score, knock-down alone: higher = more viable cells after knock-down; viability, knock-down alone: higher = more viable cells; synergy score with BYL719 and synergy score with cetuximab and synergy score with trametinib: higher = stronger synergy (synthetic lethal) with drug
# Hit rule: 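Knock-down called essential when its robust z-score without drug falls below -3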
# Meaning of the calls: active = essential: viability loss from knock-down alone; inactive = no change from knock-down alone
# Shown is a random part of 794 reagents. Over the whole deposit, 9 (1.1%) got an active call. 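Calls rest on knock-down alone, not drug synergy; viability values seem capped at 1.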 The record does not give: the amount of reagent, the time to read-out.
gene knocked down,"robust z-score, knock-down alone","viability, knock-down alone (fraction of control)",synergy score with BYL719,synergy score with cetuximab,synergy score with trametinib,Outcome
DYRK1A,-0.479,0.897,-0.0921,0.0794,-0.0445,inactive
PSKH1 (protein serine kinase H1),-0.192,0.915,0.048,-0.11,0.174,inactive
CLSPN (claspin),-0.0937,0.922,-0.0784,-0.103,-0.046,inactive
ITPKB (inositol-trisphosphate 3-kinase B),1.13,1,0,-0.0272,0.0353,inactive
MARK2 (microtubule affinity regulating kinase 2),-1.12,0.855,-0.0789,-0.0376,-0.0312,inactive
RET (ret proto-oncogene),0.0593,0.931,-0.0685,0.00423,-0.0989,inactive
SPHK1 (sphingosine kinase 1),1.13,1,0.0258,0.0586,-0.00816,inactive
GSK3B (glycogen synthase kinase 3 beta),1.13,1,0,0.176,0.128,inactive
ELF3 (E74 like ETS transcription factor 3),-1.47,0.833,0.000366,-0.0108,-0.127,inactive
PTEN (phosphatase and tensin homolog),-2.32,0.779,-0.148,-0.0637,-0.218,inactive
TESK1 (testis associated actin remodelling kinase 1),1.13,1,0,0.0113,-0.0326,inactive
PIK3R5 (phosphoinositide-3-kinase regulatory subunit 5),1.13,1,0.113,0.171,0.00718,inactive
LMTK3 (lemur tail kinase 3),0.774,0.977,-0.0207,0.0209,0.276,inactive
PPP2R1A (protein phosphatase 2 scaffold subunit Aalpha),1.13,1,0.00517,0.0081,-0.0326,inactive
PGK2 (phosphoglycerate kinase 2),1.13,1,0,0.0644,-0.0326,inactive
LMTK1 (lemur tail kinase 1),-1.05,0.86,0.0754,0.0462,0.0365,inactive
RUNX1 (RUNX family transcription factor 1),0.222,0.942,-0.0581,0.0801,0.164,inactive
CHD4 (chromodomain helicase DNA binding protein 4),-4.31,0.651,-0.0804,0.0774,0.156,active
PDK1 (pyruvate dehydrogenase kinase 1),0.659,0.97,0.106,-0.00535,0.17,inactive
AK3 (adenylate kinase 3),-0.287,0.909,-0.0424,0.167,0.0624,inactive
MAP4K1 (mitogen-activated protein kinase kinase kinase kinase 1),0.845,0.982,0.169,0.271,0.251,inactive
FN3K (fructosamine 3 kinase),-0.427,0.9,0.0734,-0.0287,-0.129,inactive
PRKD2 (protein kinase D2),-0.679,0.884,-0.0586,0.133,0.119,inactive
PI4KA (phosphatidylinositol 4-kinase alpha),-0.424,0.9,-0.0185,-0.0521,-0.106,inactive
CALM3 (calmodulin 3),-1.73,0.817,-0.0806,-0.0151,-0.154,inactive
NEK2 (NIMA related kinase 2),0.85,0.982,0.0502,0.0931,0.172,inactive
STK16 (serine/threonine kinase 16),0.167,0.938,-0.007,0.138,-0.0864,inactive
BMX (BMX non-receptor tyrosine kinase),-1.06,0.859,-0.0276,-0.154,-0.169,inactive
PANK4 (pantothenate kinase 4 (inactive)),-3.76,0.686,-0.098,-0.00832,-0.195,active
MKNK2 (MAPK interacting serine/threonine kinase 2),0.282,0.946,-0.00991,-0.08,-0.0799,inactive
AKAP9 (A-kinase anchoring protein 9),0.463,0.957,-0.00201,0.0334,-0.0739,inactive
PIP4K2C (phosphatidylinositol-5-phosphate 4-kinase type 2 gamma),1.13,1,0,0.138,0.0672,inactive
MAP4K2 (mitogen-activated protein kinase kinase kinase kinase 2),1.13,1,0.133,0.0675,0.124,inactive
CDK5 (cyclin dependent kinase 5),0.347,0.95,-0.00681,0.161,0.124,inactive
FBXW7 (F-box and WD repeat domain containing 7),0.119,0.935,-0.0647,-0.0559,-0.0952,inactive
"HCK (HCK proto-oncogene, Src family tyrosine kinase)",-2.32,0.779,-0.0327,-0.0119,0.12,inactive
CERT1 (ceramide transporter 1),1.13,1,0,0.00859,0.00336,inactive

Entries above marked active, once more:
gene knocked down,"robust z-score, knock-down alone","viability, knock-down alone (fraction of control)",synergy score with BYL719,synergy score with cetuximab,synergy score with trametinib,Outcome
CHD4 (chromodomain helicase DNA binding protein 4),-4.31,0.651,-0.0804,0.0774,0.156,active
PANK4 (pantothenate kinase 4 (inactive)),-3.76,0.686,-0.098,-0.00832,-0.195,active
